In PubChem BioAssay AID624297 (National Center for Advancing Translational Sciences (NCATS), 2012):
Several values for one entry are separate records, joined by “and”; a condition that tells them apart may be missing. Equal entries are not always repeated. Out of some 340,000 compounds screened, about 6,200 (1.8%) were called active. The inconclusive results got no clear call from the source; some entries with a clear call stand among them for comparison. Calls come from the whole dose curve; as a rule, active = well fitted activation curve with a large enough effect; inconclusive = small, poorly fitted or top-dose-only effect; inactive = no such curve, though single readings can be large or run the other way. A potency beside an inconclusive call is a rough fit, not a confirmed value.

Test: A quantitative high throughput screen for small molecules that induce DNA re-replication in SW480 colon adenocarcinoma cells. Note: nearly all actives have a fitted effect of over 55% in size.
Conditions: Hoechst DNA content imaging, 48 h; series mostly up to 46.1 µM
Summary of the method: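 250 cells/well; 23 nL cpd via pin tool; 48 hr, 37 C, 5% CO2; Hoechst 40 min; imager read of total nuclear intensity, ex 405/em 500-530 nm.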
Potency is the fitted concentration of half-maximal effect.

Compound | Potency
Cc1c(CCO)c(=O)[nH]n1C(=O)c1c(F)cccc1F | inconclusive: 32.6 µM [activator, partial curve, poor fit]
O=S1(=O)CCC(NC(=S)N2CCOCC2)C1 (stereo not given) | inconclusive: 6.51 µM [activator, single point]
CC(=O)C[C@@H](O)CC(=O)[C@@H]1OC(=O)[C@H](C)CCCCc2ccccc21 | inconclusive: 0.231 µM [activator, full curve, poor fit]
CCN(CC)CCCC(C)n1c2nc(=O)[nH]c(=O)c-2nc2cc(Cl)ccc21 (stereo not given) | active: 11.6 µM
CO[C@H]1/C=C/O[C@@]2(C)Oc3c(C)c(O)c4c(O)c(c(/C=N\N5CCN(C6CCCC6)CC5)c(O)c4c3C2=O)NC(=O)/C(C)=C\C=C\[C@H](C)[C@H](O)[C@@H](C)[C@@H](O)[C@@H](C)[C@H](OC(C)=O)[C@@H]1C | inconclusive: 26.6 µM [activator, single point]
Cc1cccc(NC(=O)c2ccc(S(=O)(=O)N3CCCCC3C)cc2)n1 (stereo not given) | inactive
Cc1nn2c(NCc3ccccn3)c3c(nc2c1-c1ccccc1)CCC3 | inconclusive: 0.092 µM [activator, full curve, poor fit]
CCOC(=O)/C=C1\CC(C(=O)OCC)Oc2c(OC)cccc21 (stereo not given) | inconclusive: 18.4 µM [activator, single point]
COc1ccc(CN2CCCC(C(=O)c3cccc(OC(C)C)c3)C2)cc1Cn1cccn1 (stereo not given) | inconclusive: 29.1 µM [activator, single point]
CC(C)(C)c1ccc(OCC(=O)NCC(c2cccs2)N2CCOCC2)cc1 (stereo not given) | inconclusive: 1.46 µM [activator, full curve, poor fit]
COc1ccc(-c2[nH]ncc2CN2CCC(N3CCSCC3)CC2)c(F)c1 | inconclusive: 0.411 µM [activator, full curve, poor fit]
CCOC(=O)c1cc(COc2cc(Cl)cc(Cl)c2)on1 | inactive
O=C(NCCN1CCOCC1)c1ccc2c(c1)N(Cc1ccccc1F)C(=O)c1ccccc1S2 | inconclusive: 29.1 µM [activator, single point]
O=C(Cn1cc(C(=O)C2CC2)c2ccccc21)Nc1ccccc1Cl | inconclusive: 29.1 µM [activator, single point]
COc1ccc(/C=C/C(=O)O/N=C(\N)c2ccccn2)cc1OC | inconclusive: 29.1 µM [activator, single point]
Cc1ccc(NC(=O)c2ccc(Cl)c(NC(=O)c3cccs3)c2)cc1 | inactive
COc1ccccc1C1c2ccc3ccccc3c2Oc2ncn(CCN(C)C)c(=N)c21 (stereo not given) | inconclusive: 16.4 µM [activator, single point]
CCCCC(=O)NC(c1ccc(OC)c(OC)c1)c1ccc2cccnc2c1O (stereo not given) | inconclusive: 5.8 µM [activator, single point]
CCCCC(=O)Nc1ccc(NCc2ccc(C)s2)cc1 | inconclusive: 29.1 µM [activator, single point]
COc1ccc(/C=C2\CCc3ccccc3C2=O)cc1O | active: 0.517 µM
CC(OC(=O)c1cccc(-n2cnnn2)c1)C(=O)Nc1cccc(Cl)c1 (stereo not given) | inconclusive: 0.0046 µM [activator, full curve, poor fit]
COC(=O)c1sc(NC(=O)c2ccc(C)o2)nc1C | inactive

Compound | Potency
CN(C)c1ccc(-c2noc(C3CCN(C(=O)Nc4ccc(Cl)cc4)CC3)n2)cc1 | inconclusive: 25.9 µM [activator, single point]
Cc1ccc(S(=O)(=O)Nc2cccc(Oc3cnccn3)c2)cc1 | inconclusive: 29.1 µM [activator, single point]
COCCCNC(=S)NNC(=S)Nc1ccc(F)cc1F | inconclusive: 18.4 µM [activator, single point]
Cc1cc(C)c(NC(=O)C[C@H](CC(=O)O)c2cccc3ccccc23)c(C(=O)N2CCC3(CCCC3)CC2)c1 | inconclusive: 33.5 µM [activator, single point]
COc1ccc(C2=NNC(c3ccco3)=Nc3ccc(F)cc32)cc1 | inconclusive: 29.1 µM [activator, single point]
CN(C)c1ccc(C(C(=O)NC2CCCCC2)N(Cc2ccco2)C(=O)c2snc(C(N)=O)c2N)cc1 (stereo not given) | inactive
O=C(COC(=O)c1cccc(O)c1)c1ccccc1 | inconclusive: 0.517 µM [activator, full curve, poor fit]
Cc1ccc(NC(=O)CSC(C)C(=O)NCCc2ccccn2)cc1 (stereo not given) | inconclusive: 0.092 µM [activator, full curve, poor fit]
c1ccc(-c2nc(-c3ccco3)n3ccccc23)cc1 | inconclusive: 14.6 µM [activator, partial curve]
CCCC(C(=O)NC1CCCC1)N(C(=O)Cn1nnc(-c2ccc(C)o2)n1)c1ccccc1OC (stereo not given) | inconclusive: 16.4 µM [activator, partial curve, poor fit]
Cc1c(N=N/C(C(=O)Nc2ccccc2)=C(/O)c2ccccc2)c(=O)n(-c2ccccc2)n1C | active: 6.51 µM
Cc1cc(-c2n[nH]c(=S)n2/N=C/C(Br)=C/c2ccccc2)n[nH]1 | active: 6.51 µM
CCc1ccccc1NC(=O)CNC(=O)c1cc(C2CC2)nc2c1cnn2C(C)C | inactive
CC(CC(=O)O)CC(=O)Nc1nncs1 (stereo not given) | inconclusive: 3.26 µM [activator, partial curve, poor fit]
CCn1c2ccc(C)cc2c2nnc(NN)nc21 | inconclusive: 25.9 µM [activator, single point]
O=C(NCc1ccco1)c1cc2nc(-c3ccc4c(c3)OCO4)cc(C(F)(F)F)n2n1 | inconclusive: 18.4 µM [activator, partial curve, poor fit]
O=C1CCCC(=O)C1=C1SCCCS1 | inconclusive: 5.8 µM [activator, full curve]
O=C(CCCCCCC(=O)Nc1ccccc1)NO | active: 3.35 µM and active: 3.66 µM
Cc1c(NC(=O)c2cccnc2Cl)c(=O)n(-c2ccccc2)n1C | inactive
O=C1c2ccccc2C(=O)C12OC2c1ccc(Cl)cc1Cl (stereo not given) | inconclusive: 23.1 µM [activator, single point]
O=C(Nc1ccc(Cl)cn1)c1cccc(OCc2ccccc2)c1 | inconclusive: 20.6 µM [activator, single point]
CCOC(=O)c1ccc(NC(=O)c2cccc(S(=O)(=O)N3c4ccccc4CC3C)c2)s1 (stereo not given) | inconclusive: 29.1 µM [activator, single point]

Exported comma-delimited: two of the compounds above.
Compound,Potency
O=C(Nc1ccc(Cl)cn1)c1cccc(OCc2ccccc2)c1,"inconclusive: 20.6 µM [activator, single point]"
CCOC(=O)c1ccc(NC(=O)c2cccc(S(=O)(=O)N3c4ccccc4CC3C)c2)s1 (stereo not given),"inconclusive: 29.1 µM [activator, single point]"

(next part)

Compound | Potency
COc1ccc(C(=O)c2cn[nH]c2-c2cc(Cl)ccc2O)cc1 | inconclusive: 32.6 µM [activator, partial curve, poor fit]
C=CCn1c(-c2ccc3ncccc3c2)n[nH]c1=S | inconclusive: 16.4 µM [activator, partial curve, poor fit]
Cc1ccc(NC(=O)Nc2ccc3c(c2)OCO3)nc1 | inconclusive: 0.461 µM [activator, full curve, poor fit]
Cc1cc(CNC(=O)COc2ccc(F)cc2)c2ccccc2n1 | inconclusive: 6.51 µM [activator, single point]
C=C(C)COC(=O)C1CC2OC2CC1C(=O)OCC(=C)C (stereo not given) | inactive
COc1ccccc1NC(=O)c1oc2ccccc2c1NC(=O)c1cc(OC)c(OC)c(OC)c1 | inconclusive: 20.6 µM [activator, partial curve, poor fit]
CCC1CCCCN1C(=O)COC(=O)c1ccc(Br)o1 (stereo not given) | inactive
CCc1nc(SCC(=O)c2ccccc2)c2ccccc2n1 | inactive
COc1ccc(-c2ccc(=O)n(CC(=O)NCC3COCCO3)n2)cc1 (stereo not given) | inconclusive: 29.1 µM [activator, partial curve, poor fit]
Cc1ccc(N=C2NC(=O)/C(=C/c3cn(C)c4ccccc34)S2)cc1C | inconclusive: 20.6 µM [activator, single point]
C/C(=N\Nc1ccc(S(N)(=O)=O)cc1[N+](=O)[O-])c1ccco1 | inconclusive: 29.1 µM [activator, single point]
COCCC(=O)N1CCc2ccc(NC(=O)c3ccc(C(F)(F)F)cc3)cc2C1 | inconclusive: 6.51 µM [activator, partial curve, poor fit]
S=C(c1ccc[nH]1)N1CCOCC1 | inactive
COC(=O)C1=CN(Cc2ccc(OC)cc2)C=C(C(=O)OC)C1c1cccs1 | inconclusive: 29.1 µM [activator, single point]
O=S(=O)(/C(=C\c1ccc(C(F)(F)F)cc1)c1nc2ccccc2[nH]1)c1ccccc1 | active: 2.31 µM
CC1(C)Oc2ccccc2OC1(O)c1ccc2ccccc2n1 (stereo not given) | inconclusive: 2.59 µM [activator, full curve, poor fit]
N#CC1=C(N)Oc2c(ccc3cccnc23)C1c1cccnc1 (stereo not given) | active: 2.59 µM
Cc1ccc(-n2ncc3c(=O)n(-c4ccc(C)c(C)c4)c(-c4ccco4)nc32)cc1 | inconclusive: 18.4 µM [activator, single point]
O=C(c1cccc([N+](=O)[O-])c1)N1CCN(c2cccc(Cl)c2)CC1 | inconclusive: 18.4 µM [activator, partial curve, poor fit]
CCOc1ccc(C(=O)CCC(=O)N2CCN(c3ccc(O)cc3)CC2)cc1 | inconclusive: 2.06 µM [activator, partial curve, poor fit]
O=C(Nc1cccc(S(=O)(=O)N2CCCCC2)c1)c1c2c(nc3ccccc13)CCN(Cc1ccccc1)C2 | inconclusive: 32.6 µM [activator, partial curve, poor fit]
